# Earlier results as cited in US7820199B2, “Stable extended release oral dosage composition” (Schering Corporation, priority 1999, dated 2010).
# Legend:
# [1] = mice, comparison of ED50 value
# cells of human origin = settings: in vitro, mainly cells of human origin; independent of H1-antagonist effect
# [2] = over 3,200 patients, 4 double-blind randomized trials, adult and adolescent patients
smiles,measurement,setting,value
Clc1ccc2c(c1)CCc1cccnc1C2=C1CCNCC1 [desloratadine],"alterations in behavior, neurologic or autonomic function",[1],relatively free of producing alterations in behavior
same,inhibition of events in the cascade of allergic inflammation,cells of human origin,can inhibit many events in the cascade of allergic inflammation
same,clinical efficacy in seasonal rhinitis,[2],demonstrated the efficacy
